Data as given in PubChem BioAssay AID1159584 (Peter MacCallum Cancer Centre, 2016).
Shown is a random part of about 18,000 reagents. Further read-outs or replicates are left out here. No sequences are given here. Not given: the amount of reagent, the time to read-out.

Assay: 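Knock-downs that harm CDH1-null cells more than parental MCF10A cells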 (primary screen)
System: human MCF10A breast epithelial cells, parental and CDH1-null
Reagent: siRNA against human genes
Read-out: 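ATP luminescence (CellTiter-Glo) viability per line relative to mean mock wells over all plates, and the ratio of CDH1-null to parental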
Scale: CDH1-null / parental viability ratio: higher = CDH1-null cells survive relatively better than parental; CDH1-null viability vs mock: higher = more viable CDH1-null cells
Units: CDH1-null viability vs mock in fraction of mock

With LRFN5, what was measured?
CDH1-null / parental viability ratio: 1.03; CDH1-null viability vs mock: 1.21

What is on record for RGPD2?
CDH1-null / parental viability ratio: 1.04; CDH1-null viability vs mock: 0.28

What is on record for PDGFB?
CDH1-null / parental viability ratio: 1; CDH1-null viability vs mock: 0.96

With CILK1, how do the results read?
CDH1-null / parental viability ratio: 0.88; CDH1-null viability vs mock: 0.91

Single entries from the list:
Under “CDH1-null viability vs mock”, LRFN5 reads 1.21
RGPD2, CDH1-null / parental viability ratio = 1.04

Additional records follow.
With PRR16, what was measured?
CDH1-null / parental viability ratio: 1.18; CDH1-null viability vs mock: 0.78

For C1orf141, what does the deposit list?
CDH1-null / parental viability ratio: 0.88; CDH1-null viability vs mock: 0.8

How did the screen score ATM?
CDH1-null / parental viability ratio: 0.95; CDH1-null viability vs mock: 0.8

With LILRA6, what was measured?
CDH1-null / parental viability ratio: 1.11; CDH1-null viability vs mock: 0.8

For OLFM1, how do the results read?
CDH1-null / parental viability ratio: 0.93; CDH1-null viability vs mock: 0.83

How did the screen score CD93?
CDH1-null / parental viability ratio: 1.02; CDH1-null viability vs mock: 0.94

What did the screen give for PLOD1?
CDH1-null / parental viability ratio: 1.06; CDH1-null viability vs mock: 0.67

What did the screen give for CORO1C?
CDH1-null / parental viability ratio: 0.94; CDH1-null viability vs mock: 0.46

For KLHL7, what does the deposit list?
CDH1-null / parental viability ratio: 1.14; CDH1-null viability vs mock: 1.07

What did the screen give for DLG3?
CDH1-null / parental viability ratio: 0.93; CDH1-null viability vs mock: 0.9
